In US20230039858A1, “COMPOSITIONS AND METHODS RELATED TO MOLECULAR CONJUGATION” (IntoCell, Inc., priority 2019, published 2023):

Assay: Chemoselectivity of reaction with N-Ac-Cys versus N-Ac-Lys and N-Ac-Tyr (LC-MS)
Type: physicochemical

SMILES	chemoselectivity for the thiol group of cysteine (equimolar N-acetyl-L-lysine, N-acetyl-L-tyrosine, N-acetyl-L-cysteine, PBS buffer/DMSO, 1 hour)	chemoselectivity for conjugate with N-Ac-Cys (equimolar N-Ac-Cys and N-Ac-Lys, or N-Ac-Cys, N-Ac-Tyr and N-Ac-Lys (Scheme 3))
C#CCOCCOCCOCCNC(=O)c1cc(C(=O)/C=C/C(N)=O)cc(C(=O)OC)c1 [AMA-9c]	complete chemoselectivity	–
C#CCOCCOCCOCCNC(=O)c1cc(C(=O)/C=C/C(N)=O)cc(C(=O)OC)c1 [compound 6]	–	over 95%
